{"source": "PubChem BioAssay AID1347076", "about": "(National Center for Advancing Translational Sciences (NCATS), 2019)", "note": "The whole screen tested about 400,000 compounds, of which about 13,000 (3.2%) were called active. The inconclusive results got no clear call from the source; some entries with a clear call stand among them for comparison. The call rests on the fitted dose curve; in most records, active means well fitted cell-killing curve with a large enough effect; inconclusive means small, poorly fitted or top-dose-only effect, or effect the other way; inactive means flat fitted curve, though single readings scatter. Potencies of inconclusive entries are doubtful fits and often do not repeat. On the % scale 0 is the no-effect control and ±100 the full control effect; potency means the concentration at half of the fitted maximal effect."}
{"test": "qHTS assay for MDR1-selective chemotherapeutics: Primary screen using the drug-selected MDR subline cells KB-V1; further: nearly all actives have a fitted effect of over 60% in size", "conditions": "KB-V1 MDR cells viability, CellTiter-Glo, 72 h; activity change, negative = cytotoxicity: at 46.1 µM (top of the series)", "outline": "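qHTS viability screen in drug-selected KB-V1 MDR cells: 72 h compound treatment at 37 degrees C, ATP luminescence end point.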"}
{"smiles": "COc1ccc(NC(=O)C2CCN(S(=O)(=O)c3cccs3)CC2)cc1OC", "Potency": "inconclusive: 23.1 µM [cytotoxic, single point]"}
{"smiles": "O=C(Nc1nc(-c2cccs2)cs1)c1cccc(S(=O)(=O)N2CCCCC2)c1", "Potency": "inconclusive: 23.1 µM [cytotoxic, partial curve, poor fit]"}
{"smiles": "O=C(CC(c1ccccc1)c1ccccc1)N1CCN(c2ccccn2)CC1", "Potency": "inconclusive: 5.8 µM [cytotoxic, partial curve]"}
{"smiles": "COc1ccc2c(c1)CC(N1CCN(C)CC1)c1cc(OC)ccc1S2", "note": "(stereo unspecified)", "Potency": "inconclusive: 9.2 µM [cytotoxic, partial curve, poor fit]"}
{"smiles": "CCOc1ccc(S(=O)(=O)Nc2cc(C)ccn2)c2ccccc12", "Potency": "active: 18.4 µM"}
{"smiles": "CC(=O)c1cc2ccccc2c2ccccc12", "activity change, negative = cytotoxicity": "inactive: 12.7%"}
{"smiles": "COc1ccc(CN2C(=O)CCC2(C)c2nnnn2C2CCCCC2)cc1", "note": "(stereo unspecified)", "Potency": "inconclusive: 13 µM [cytotoxic, partial curve, poor fit]"}
{"smiles": "CCOC(=O)C1=C(c2ccccc2)NC(N)=NC1c1ccc(OCc2ccc(C(=O)OC)cc2)cc1", "note": "(stereo unspecified)", "Potency": "inconclusive: 14.6 µM [cytotoxic, partial curve]"}
{"smiles": "O=C(NCCCN1CCOCC1)c1c(-c2ccccc2)oc2c1C(OCCCCCO)CCC2", "note": "(stereo unspecified)", "Potency": "inconclusive: 14.6 µM [cytotoxic, partial curve, poor fit]"}
{"smiles": "CCOc1ccc(C(=O)/C=C/c2cc(OC)c(OC)c(OC)c2)cc1", "Potency": "inconclusive: 23.1 µM [cytotoxic, single point]"}
{"smiles": "COc1cc(CCC(=O)Nc2ccc(Cl)c(C(F)(F)F)c2)cc(OC)c1OC", "Potency": "active: 16.4 µM"}
{"smiles": "N#Cc1ccc(N2Cc3ccccc3C2=NC(=O)c2cccs2)cc1", "Potency": "active: 18.4 µM"}
{"smiles": "O=C(Nc1ccc(Cl)cc1)Nc1cc(S(=O)(=O)N2CCOCC2)ccc1N1CCCC1", "Potency": "inconclusive: 29.1 µM [rising, single point]"}
{"smiles": "CCc1sc(C(=O)Nc2cc(S(=O)(=O)N3CCOCC3)ccc2OC)cc1C", "Potency": "inconclusive: 20.6 µM [cytotoxic, single point]"}
{"smiles": "O=C1[C@H]2[C@@H](C3CC3)N3C(=O)CN(Cc4ccccn4)C(=O)[C@@]3(Cc3ccccc3)[C@H]2C(=O)N1c1ccccc1", "activity change, negative = cytotoxicity": "inconclusive: 0.819%"}
{"smiles": "CCCCn1c(SCC(=O)Nc2nnc(C(C)C)s2)nc2c1c(=O)n(C)c(=O)n2C", "Potency": "active: 2.31 µM"}
{"smiles": "O=C(Nc1ccc2c(c1)OCCO2)C1CC(O)CN1C(=O)Nc1ccccc1", "note": "(stereo unspecified)", "activity change, negative = cytotoxicity": "inactive: 4.69%"}
{"smiles": "CCOc1ccccc1NC(=O)CN1C(=O)NC(Cc2c[nH]c3ccccc23)C1=O", "note": "(stereo unspecified)", "activity change, negative = cytotoxicity": "inactive: 0%"}
{"smiles": "C=C(C)CN(CC)C(=O)CC1C(=O)NCCN1Cc1c(F)cccc1Cl", "note": "(stereo unspecified)", "Potency": "inconclusive: 25.9 µM [cytotoxic, partial curve, poor fit]"}
{"smiles": "C=COCCNC(=O)Nc1ccc(Cl)c(Cl)c1", "Potency": "inconclusive: 11.6 µM [rising, partial curve, poor fit]"}
{"smiles": "C#CCOCCOCCOCCNc1nc(N2CCN(C(=O)CCCCCCCCCCNC(=O)[C@H](CCCCN)n3cc(C[C@@H](C)CC)nn3)CC2)nc(N2CCN(C(=O)CCCCCCCCCCNC(=O)[C@H](CCCCN)n3cc(C[C@@H](C)CC)nn3)CC2)n1", "Potency": "inconclusive: 18.4 µM [cytotoxic, single point]"}
{"smiles": "CC1(C(=O)NCc2cccnc2)CCC(=O)N1CCc1ccccc1", "note": "(stereo unspecified)", "Potency": "inconclusive: 29.1 µM [rising, partial curve, poor fit]"}
{"smiles": "COc1cccc(NC(=O)c2ccc(-c3ccccc3[N+](=O)[O-])o2)c1", "Potency": "inconclusive: 29.1 µM [cytotoxic, partial curve, poor fit]"}
{"smiles": "O=C(c1ccc(COc2ccc(Cl)cc2)o1)N1N=C(C(F)F)CC1(O)C(F)F", "note": "(stereo unspecified)", "activity change, negative = cytotoxicity": "inactive: -29.2%"}
{"smiles": "Cc1nc(N)sc1-c1csc(Nc2ccc(S(N)(=O)=O)cc2)n1", "Potency": "inconclusive: 23.1 µM [rising, single point]"}
{"smiles": "CCS(=O)(=O)N1CCc2cc(C(=O)N3CCN(c4cccc(C(F)(F)F)c4)CC3)ccc21", "Potency": "inconclusive: 23.1 µM [cytotoxic, single point]"}
{"smiles": "Cc1ccc(NC(=O)C(=O)NCC(c2cccnc2)N2CCOCC2)cc1C", "note": "(stereo unspecified)", "activity change, negative = cytotoxicity": "inactive: 7.89%"}
{"smiles": "Oc1cccc(C(Nc2ccccn2)c2ccc3cccnc3c2O)c1Cl", "note": "(stereo unspecified)", "Potency": "inconclusive: 23.1 µM [cytotoxic, single point]"}
{"smiles": "CCOC(=O)N1CCN(CCC(=O)Nc2ccc(C)c(Br)c2)CC1", "Potency": "inconclusive: 14.6 µM [cytotoxic, partial curve]"}
{"smiles": "CCn1c2ccccc2c2n[nH]c(=S)nc21", "Potency": "active: 6.51 µM"}
{"smiles": "CCOC(=O)Nc1ccc2c(CN3CCN(S(=O)(=O)c4ccccc4)CC3)cc(=O)oc2c1", "Potency": "inconclusive: 23.1 µM [cytotoxic, single point]"}
{"smiles": "CCn1nc(C)cc1C(=O)Sc1cccc(Br)c1", "activity change, negative = cytotoxicity": "inactive: 12.5%"}
{"smiles": "CCNc1ccc(N=Nc2c(C)n(C)n(-c3ccccc3)c2=O)cc1", "activity change, negative = cytotoxicity": "inconclusive: -24.7%"}
{"smiles": "O=C(NCc1ccccn1)c1cc(-n2cnnc2)ccc1Cl", "Potency": "inconclusive: 29.1 µM [rising, single point]"}
{"smiles": "COc1ccc2c(c1)C(C)=CC(C)(C)N2S(=O)(=O)c1ccc(C)cc1", "Potency": "active: 2.59 µM"}
{"smiles": "O=C(Nc1cc(Sc2nc3ccccc3s2)cc([N+](=O)[O-])c1)c1cccc(F)c1F", "Potency": "inconclusive: 14.6 µM [cytotoxic, partial curve]"}
{"smiles": "Cc1ccc(S(=O)(=O)N2[C@H](CC(=O)c3ccc(Cl)c(Cl)c3)OC[C@@H]2C)cc1", "Potency": "inconclusive: 18.4 µM [cytotoxic, single point]"}
{"smiles": "Brc1ccc(CN2C3=NCCCN3c3ccccc32)cc1", "activity change, negative = cytotoxicity": "inactive: -1.54%"}
{"smiles": "CCOc1ncccc1C(=O)NNC(=O)c1ccc(NS(=O)(=O)c2cccs2)cc1", "activity change, negative = cytotoxicity": "inactive: -0.0727%"}
{"smiles": "Cc1ccc(C(=O)c2oc3ccccc3c2NC(=O)c2cc(=O)c3ccccc3o2)cc1", "Potency": "inconclusive: 29.1 µM [rising, single point]"}
{"smiles": "CCCC(=O)NC(c1cccc([N+](=O)[O-])c1)c1ccc2cccnc2c1O", "note": "(stereo unspecified)", "Potency": "inconclusive: 1.64 µM [cytotoxic, partial curve, poor fit]"}
{"smiles": "N#C/C=C1\\Sc2ccccc2C(=O)N1CC(=O)N1CCN(S(=O)(=O)c2ccccc2)CC1", "Potency": "inconclusive: 4.11 µM [cytotoxic, full curve]"}
{"smiles": "Cc1c(CCOC(=O)CC23CC4CC(CC(C)(C4)C2)C3)sc[n+]1CC(=O)c1ccccc1", "activity change, negative = cytotoxicity": "inactive: 10.6%"}
{"smiles": "Cc1c(CCOC(=O)c2ccc(Cl)cc2Cl)sc[n+]1CC(=O)c1ccc(Br)cc1", "Potency": "inconclusive: 29.1 µM [cytotoxic, single point]"}
{"smiles": "COc1ccc(NC(=O)c2c3c(nc4ccccc24)CCC3)cc1S(=O)(=O)N1CCOCC1", "Potency": "inconclusive: 11.6 µM [cytotoxic, partial curve, poor fit]"}
{"smiles": "NS(=O)(=O)c1ccc(CCNC(=O)COC(=O)COc2cccc(C(F)(F)F)c2)cc1", "Potency": "inconclusive: 23.1 µM [rising, single point]"}
{"smiles": "CCOC(=O)NC(Nc1sc2c(c1C(N)=O)CCCC2)(C(=O)OCC)C(F)(F)F", "note": "(stereo unspecified)", "Potency": "inconclusive: 16.4 µM [cytotoxic, single point]"}
{"smiles": "O=C(Cc1coc2cc3c(cc12)CCC3)NC1CCCCCCC1", "Potency": "inconclusive: 0.651 µM [rising, full curve]"}
{"smiles": "O=c1c(Cl)cc(Cl)nn1-c1ccccc1", "Potency": "inconclusive: 25.9 µM [cytotoxic, single point]"}
{"smiles": "COc1ccc(/C=C/C(=O)OCC(=O)Nc2cccc(Oc3ccccc3)c2)c(OC)c1", "Potency": "inconclusive: 25.9 µM [cytotoxic, partial curve, poor fit]"}
{"smiles": "CN(C)S(=O)(=O)Oc1ccc(C(=O)Nc2cccc(C(F)(F)F)c2)cc1", "activity change, negative = cytotoxicity": "inactive: -18.4%"}
{"smiles": "O=C(N/N=C/c1ccccc1)c1sccc1OCc1ccc(F)cc1", "Potency": "inconclusive: 20.6 µM [cytotoxic, single point]"}
{"smiles": "COc1ccc(Cl)cc1-c1n[nH]c(=S)n1C", "Potency": "inconclusive: 16.4 µM [cytotoxic, partial curve, poor fit]"}
{"smiles": "CCSC(C)CC1C/C(=N/O)c2c(C)noc2C1", "note": "(stereo unspecified)", "Potency": "inconclusive: 16.4 µM [cytotoxic, single point]"}
{"smiles": "CCCCN(Cc1ccccc1)C(=O)C1CCN(Cc2sccc2C)CC1", "Potency": "inconclusive: 0.731 µM [cytotoxic, full curve, poor fit]"}
{"smiles": "COc1ccc(-c2c(C)[nH]n3c(=O)c(Cc4ccccc4)c(C)nc23)cc1", "Potency": "active: 16.4 µM"}
{"smiles": "O=C(Cn1nnc(-c2ccc(CN3CCOCC3)cc2)n1)N(c1ccccc1)c1ccccc1", "Potency": "inconclusive: 8.2 µM [cytotoxic, partial curve]"}
{"smiles": "CCCc1nnc(SCC(=O)Nc2nc(C)cs2)n1CCOC", "Potency": "inconclusive: 29.1 µM [rising, single point]"}
{"smiles": "CCc1nc2c(OCC(=O)c3ccc(F)cc3)cccn2c1N(C)C(=O)C(C)C", "activity change, negative = cytotoxicity": "inactive: 2.62%"}
{"smiles": "Cc1ccc2c(c1)N(CCC(=O)NCc1cccs1)C(=O)C(C)O2", "note": "(stereo unspecified)", "Potency": "inconclusive: 13 µM [cytotoxic, partial curve]"}
{"smiles": "CCN(CC)C(=O)c1c(Cl)nc(C)c([N+](=O)[O-])c1C", "activity change, negative = cytotoxicity": "inactive: 12.5%"}
{"smiles": "CCOc1cc(CNCc2ccncc2)cc(Br)c1OCc1ccccc1F", "Potency": "inconclusive: 11.6 µM [cytotoxic, partial curve]"}
{"smiles": "CCOc1ccc(N(C)S(=O)(=O)c2ccc3c(c2)C(C)(C)C(=O)N3C)cc1", "activity change, negative = cytotoxicity": "inactive: -18.2%"}
{"smiles": "COc1cccc2c1C(=O)c1c(O)c3c(c(O)c1C2=O)CC(O)(C(=O)CO)CC3OC1CC(N(C)C)C(O)C(C)O1", "note": "(stereo unspecified)", "Potency": "active: 13 µM"}
{"smiles": "C[C@@H]1COC(=O)CCC/C=C\\C[C@@H](CC(=O)N(CCO)Cc2ccccc2)C(=O)N1", "activity change, negative = cytotoxicity": "inactive: 0.0002%"}
{"smiles": "CCc1nc2ccc(C(=O)NCCCn3ccnc3)cn2c1N(C)Cc1ccc(OC)cc1", "activity change, negative = cytotoxicity": "inactive: 29.1%"}
